Results are given in words; binding and its absence hold for the method and conditions named. Binding seen in cells or lysates may run through a third protein. Some entries that bind do so weakly or less than the wild type.
Tests used:
[1] = target: β2-adrenergic receptor C terminally fused with RlucII (β2AR-RlucII) (UniProt P07550); experiment: FRET or BRET; live HEK293 cells co-transfected with donor β2AR-RlucII or β1AR-RlucII and acceptor Gαq-Venus; stimulated 20 min with increasing concentrations of ISO; data as % of maximal ISO-induced Gαq recruitment to the β2AR
[2] = target: β1-adrenergic receptor fused to RlucII (β1AR-RlucII) (UniProt P08588); experiment: as above

Protein sequences, listed by entry. Tags and fused reporters are not part of them.
UniProt P08588: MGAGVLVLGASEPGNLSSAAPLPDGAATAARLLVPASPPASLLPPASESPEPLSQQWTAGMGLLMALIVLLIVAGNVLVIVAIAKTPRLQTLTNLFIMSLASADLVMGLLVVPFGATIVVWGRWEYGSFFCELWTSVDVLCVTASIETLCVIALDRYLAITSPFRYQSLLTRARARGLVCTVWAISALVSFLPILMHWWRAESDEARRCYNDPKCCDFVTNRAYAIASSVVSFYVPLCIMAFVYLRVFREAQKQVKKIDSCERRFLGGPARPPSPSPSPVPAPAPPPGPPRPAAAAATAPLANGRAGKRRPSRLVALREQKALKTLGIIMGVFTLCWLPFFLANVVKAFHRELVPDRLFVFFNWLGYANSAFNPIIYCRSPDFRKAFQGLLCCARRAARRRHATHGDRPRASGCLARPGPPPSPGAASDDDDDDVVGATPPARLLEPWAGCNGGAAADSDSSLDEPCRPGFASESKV
UniProt P50148: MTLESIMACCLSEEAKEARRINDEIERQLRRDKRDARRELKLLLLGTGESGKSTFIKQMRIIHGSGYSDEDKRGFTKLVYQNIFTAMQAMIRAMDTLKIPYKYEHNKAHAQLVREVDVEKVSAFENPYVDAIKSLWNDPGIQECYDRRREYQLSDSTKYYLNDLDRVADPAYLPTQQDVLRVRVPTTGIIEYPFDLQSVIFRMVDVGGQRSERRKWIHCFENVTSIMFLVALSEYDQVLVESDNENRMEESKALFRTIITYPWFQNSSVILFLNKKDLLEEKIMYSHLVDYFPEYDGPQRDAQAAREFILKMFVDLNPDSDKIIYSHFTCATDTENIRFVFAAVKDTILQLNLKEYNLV

binding [1]: binds
binding [2]: no binding
Substance: holo-Gαq subunit fused to Venus (Gαq-Venus) (from UniProt P50148 1-359)

Source: article PMC11570840
